{"source": "PubChem BioAssay AID1259425, University of Nebraska Medical Center – 2018", "aim": "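Compare each knockdown with KSR1 silencing using changes in marker transcripts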 (primary screen)", "cells": "HCT116 human colon cancer cells", "reagents": "siRNA pool against human genes, 50 nM siRNA", "measured": "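After 50 nM siRNA pool, branched-DNA assay measures six marker transcripts per well, minus blank, normalised to the geometric mean of two housekeeping transcripts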", "reading the numbers": "BNIP3L mRNA: higher = more BNIP3L transcript after knockdown", "note": "Here is a random part of about 14,000 reagents. Not all columns of the deposit are shown. Reagent sequences are not shown. The record does not give: the time to read-out."}
{"gene": "ASAP3 (ArfGAP with SH3 domain, ankyrin repeat and PH domain 3)", "BNIP3L mRNA, set 1": 0.0764}
{"gene": "ERCC8 (ERCC excision repair 8, CSA ubiquitin ligase complex subunit)", "BNIP3L mRNA, set 1": 0.0516}
{"gene": "ADIPOR2 (adiponectin receptor 2)", "BNIP3L mRNA, set 1": 0.0938}
{"gene": "SMIM11 (small integral membrane protein 11)", "BNIP3L mRNA, set 1": 0.163}
{"gene": "KCND3 (potassium voltage-gated channel subfamily D member 3)", "BNIP3L mRNA, set 1": 0.172}
{"gene": "SCYL1 (SCY1 like pseudokinase 1)", "BNIP3L mRNA, set 1": 0.0687}
{"gene": "SOD3 (superoxide dismutase 3)", "BNIP3L mRNA, set 1": 0.0877}
{"gene": "CCL18 (C-C motif chemokine ligand 18)", "BNIP3L mRNA, set 1": 0.0676}
{"gene": "FAM3B (FAM3 metabolism regulating signaling molecule B)", "BNIP3L mRNA, set 1": 0.0963}
{"gene": "TNF (tumor necrosis factor)", "BNIP3L mRNA, set 1": 0.176}
{"gene": "UNC5B (unc-5 netrin receptor B)", "BNIP3L mRNA, set 1": 0.0944}
{"gene": "POLI (DNA polymerase iota)", "BNIP3L mRNA, set 1": 0.167}

Reformatted: 2 of the entries above
KCND3 (potassium voltage-gated channel subfamily D member 3): BNIP3L mRNA, set 1 = 0.172
SCYL1 (SCY1 like pseudokinase 1): BNIP3L mRNA, set 1 = 0.0687
